Measured values as given in patent US20130156779A1.
Results are given in words; binding and its absence hold for the method and conditions named. Some results given as binding are weak or reduced against the parent protein; the word gives no strength. For part of these data: Sequences can lack the tags named with a protein.

The chains behind the UniProt entries cited, without tags or fusion partners. Where a name states a change or a piece, a line headed by the entry shows the natural chain unless it says otherwise. A line that says so, or that is headed by a name, gives the form on record, which may keep a tag or linker.
UniProt P21860: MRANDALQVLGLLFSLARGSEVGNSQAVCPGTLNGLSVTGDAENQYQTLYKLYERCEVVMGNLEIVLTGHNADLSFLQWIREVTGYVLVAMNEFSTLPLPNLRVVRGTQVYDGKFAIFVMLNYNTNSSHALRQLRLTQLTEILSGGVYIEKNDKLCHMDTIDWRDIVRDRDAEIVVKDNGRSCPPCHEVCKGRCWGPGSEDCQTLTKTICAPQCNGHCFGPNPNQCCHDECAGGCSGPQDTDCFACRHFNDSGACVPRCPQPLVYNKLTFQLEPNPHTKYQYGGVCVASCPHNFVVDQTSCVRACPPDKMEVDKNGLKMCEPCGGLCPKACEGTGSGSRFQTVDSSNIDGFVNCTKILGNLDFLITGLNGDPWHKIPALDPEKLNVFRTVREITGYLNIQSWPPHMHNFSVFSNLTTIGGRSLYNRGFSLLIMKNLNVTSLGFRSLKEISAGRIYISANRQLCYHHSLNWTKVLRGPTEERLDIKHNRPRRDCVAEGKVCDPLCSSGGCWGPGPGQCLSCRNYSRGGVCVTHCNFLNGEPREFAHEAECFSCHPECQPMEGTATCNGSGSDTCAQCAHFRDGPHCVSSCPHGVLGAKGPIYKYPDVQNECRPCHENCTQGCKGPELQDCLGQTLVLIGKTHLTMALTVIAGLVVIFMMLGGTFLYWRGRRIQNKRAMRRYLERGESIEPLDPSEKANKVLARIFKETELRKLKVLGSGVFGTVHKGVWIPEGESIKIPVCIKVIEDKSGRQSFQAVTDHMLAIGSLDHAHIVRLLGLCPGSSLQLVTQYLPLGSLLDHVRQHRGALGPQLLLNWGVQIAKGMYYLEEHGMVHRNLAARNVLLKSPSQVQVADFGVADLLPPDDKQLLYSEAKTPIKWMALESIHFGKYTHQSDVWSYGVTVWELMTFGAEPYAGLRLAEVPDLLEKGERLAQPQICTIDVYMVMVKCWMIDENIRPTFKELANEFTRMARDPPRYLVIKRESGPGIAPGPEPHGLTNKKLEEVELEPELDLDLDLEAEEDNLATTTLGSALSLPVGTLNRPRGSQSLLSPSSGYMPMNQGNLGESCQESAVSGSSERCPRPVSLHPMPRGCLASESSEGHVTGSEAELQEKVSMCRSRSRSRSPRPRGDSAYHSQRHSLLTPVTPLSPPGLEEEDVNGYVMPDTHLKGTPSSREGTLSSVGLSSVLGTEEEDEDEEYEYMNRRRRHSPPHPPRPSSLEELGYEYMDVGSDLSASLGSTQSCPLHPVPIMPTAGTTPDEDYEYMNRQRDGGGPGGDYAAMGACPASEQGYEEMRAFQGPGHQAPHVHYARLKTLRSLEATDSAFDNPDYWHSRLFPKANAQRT
Full-length cynomolgus monkey HER3 extracellular domain (ECD) (G7PIG5, form named): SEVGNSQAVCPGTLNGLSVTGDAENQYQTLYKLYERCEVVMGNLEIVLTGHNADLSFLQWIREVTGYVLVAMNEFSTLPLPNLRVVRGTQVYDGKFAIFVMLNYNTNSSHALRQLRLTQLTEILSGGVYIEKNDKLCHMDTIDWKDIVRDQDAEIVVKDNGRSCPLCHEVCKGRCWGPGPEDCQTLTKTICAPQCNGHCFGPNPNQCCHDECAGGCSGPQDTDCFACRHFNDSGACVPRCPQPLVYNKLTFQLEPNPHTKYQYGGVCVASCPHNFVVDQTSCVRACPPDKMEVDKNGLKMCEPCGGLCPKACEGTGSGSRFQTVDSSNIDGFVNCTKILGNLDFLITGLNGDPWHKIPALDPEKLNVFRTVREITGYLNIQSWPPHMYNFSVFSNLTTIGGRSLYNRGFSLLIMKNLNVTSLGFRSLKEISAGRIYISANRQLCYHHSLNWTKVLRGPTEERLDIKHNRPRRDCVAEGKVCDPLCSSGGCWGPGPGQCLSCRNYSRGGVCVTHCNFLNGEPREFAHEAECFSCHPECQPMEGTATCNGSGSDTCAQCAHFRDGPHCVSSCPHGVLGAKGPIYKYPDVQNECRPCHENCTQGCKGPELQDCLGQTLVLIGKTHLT

B1: Murine 1D9 antibody (M5.1D9.1F5) (antibody, IgG2b, V domains shown)
VH: QVQLQQPGAELVRPGTSVKLSCKASGYTFTSYWMHWVKQRPGQGLEWIGVIDPSDGYSHYNQKFKGKATLTVDTSSSTAYMQLSSLTSEDSAVYYCAGGLAGTLDYWGQGTTLTVSS
VL: DVLMTQTPLSLPVSLGDQASISCRSSQSIVHSSGNTYLQWFLQKPGQSPKLLISKVSNRFSGVPDRFSGSGSGTDFTLRISRVEAEDLGLYYCFQGSHVPWTFGGGTKLEIK
B2: Humanized 1D9 Fc disabled antibody (antibody, V domains shown)
VH: QVQLVQSGAEVKKPGASVKVSCKASGYTFTSYWMHWVRQAPGQGLEWMGVIDPSDGYSHYNQKFKGKVTLTVDTSISTAYMELSRLRSDDTAVYYCAGGLAGTLDYWGQGTTVTVSS
VL: DIQMTQSPSSLSASVGDRVTITCRSSQSIVHSSGNTYLQWFQQKPGKAPKLLIYKVSNRFSGVPSRFSGSGSGTDFTLTISSLQPEDFAVYYCFQGSHVPWTFGQGTKLEIKR

Legend:
[1] = molecular target: Human HER3 ECD domain I (human) (UniProt P21860); test: DELFIA, plate coated with HER3 Domain I 1ug/ml
[2] = molecular target: Human HER3 ECD domain IV (human) (UniProt P21860); test: DELFIA, plate coated with HER3 Domain IV 1ug/ml
[3] = molecular target: Full-length cynomolgus monkey HER3 extracellular domain (ECD) (cynomolgus monkey) (UniProt G7PIG5); test: BIACORE SPR

Binder	binding [1]	binding [2]	binding [3]
B1	no binding (tested: 10 ug/ml)	no binding (tested: 10 ug/ml)	–
B2	–	–	binds
